In patent US12539264B2, “Composition comprising pentapeptide as active ingredient” (priority 2020, dated 2026):
Not every detail of the peptide structures is certain; ends, links or a residue may be inferred. No end group written: not given here.

Protein sequences, listed by entry. Tags and fused reporters are not part of them.
UniProt Q16623, whole entry, species assumed: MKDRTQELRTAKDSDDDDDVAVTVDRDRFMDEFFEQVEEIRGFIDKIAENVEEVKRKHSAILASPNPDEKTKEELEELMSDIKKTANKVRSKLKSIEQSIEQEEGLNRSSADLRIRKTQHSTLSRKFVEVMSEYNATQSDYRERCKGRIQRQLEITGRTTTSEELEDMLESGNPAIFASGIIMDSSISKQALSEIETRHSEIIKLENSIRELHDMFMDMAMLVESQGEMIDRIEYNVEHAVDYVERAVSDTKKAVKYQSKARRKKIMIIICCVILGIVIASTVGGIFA

How the values were obtained:
[1] = biological target: T1, recombinant syntaxin 1a protein (Homo sapiens, UniProt Q16623); experiment: Degradation of syntaxin 1a protein (Western blot); type: biochemical; conditions: 20, 100, 200 μM pentapeptide, 4 hours at 37° C., pH 7.4
T1 construct: purchased Novus biologicals, USA

[2] = tested on: dorsal root ganglion (DRG) nerve cells; experiment: Inhibition of capsaicin-induced substance P release from dorsal root ganglion nerve cells (ELISA); type: cell-based, rats; conditions: 1 μM and 10 μM pretreated 1 hour, 100 μM capsaicin 30 minutes
[3] = Human efficacy evaluation of sweat secretion in hyperhidrosis (iodine-starch test, Image J intensity analysis); type: in vivo; conditions: 2000 ppm pentapeptide applied with mesoroller, vs opposite side with PBS
[4] = Human efficacy evaluation of pain relief in delayed onset muscle soreness (NRS); type: in vivo; conditions: 2000 ppm applied to painful area 24 hours after exercise; 72 hours from exercise (48 hours after application)
Corynebacterium xerosis = experiment: Growth inhibition of body odor-causing strain (absorbance at 600 nm); type: cell-based; conditions: C. xerosis, 48 hours
C2C12 cells [5] = experiment: Pro-inflammatory cytokine gene expression in TNF-α-treated myotubes (RT-PCR); type: cell-based, mouse; conditions: 1 μM and 10 μM pretreated 1 hour, 20 nM TNF-α 24 hours
C2C12 cells [6] = experiment: Pro-inflammatory cytokine protein expression in TNF-α-treated myotubes (Western blot); type: cell-based, mouse; conditions: 1, 10, 100 μM pretreated 1 hour, 20 nM TNF-α 24 hours
SH-SY5Y cells = experiment: Inhibition of acetylcholine release in nerve cells; type: cell-based; conditions: SH-SY5Y cells, 1, 10, 50 μM, release induced by nicotine and KCl

KFLIK [pentapeptide, KFLIK]
band of recombinant syntaxin 1a protein [1]: reduced in a concentration-dependent manner | release of substance P [2]: significantly decreased | reduction of amount of sweat secreted from the armpits ([3]; armpit): about 88% | reduction of amount of sweat secreted from the hands ([3]; palm): about 74% | reduction of amount of sweat secreted from the soles ([3]; sole): about 58% | degree of pain (NRS, mean PID scores) [4]: significantly improved | antibacterial effect relative to positive control (1% triclosan) (Corynebacterium xerosis; 1 mg and 2 mg of the pentapeptide): excellent at the same level as that of the positive control group | proliferation of the body odor-causing strain (Corynebacterium xerosis; absorbance at 600 nm): clearly inhibited | mRNA expression levels of IL-1α, IL-1β, COX-2 and TNF-α (pro-inflammatory cytokine) (C2C12 cells [5]): decreased | protein expression levels of COX-2, IL-1β and TNF-α (C2C12 cells [6]): decreased in a concentration-dependent manner | release of acetylcholine (SH-SY5Y cells): significantly suppressed
